# Measurements taken from PubChem BioAssay AID540276 (National Center for Advancing Translational Sciences (NCATS), 2011).
# The whole screen tested about 300,000 compounds, of which about 5,400 (1.8%) were called active. Inconclusive means that the source gave no clear call. Such entries were picked first, then a sample of the others. The call rests on the fitted dose curve; tested in HEK293 cells. Where the call is inconclusive, the potency comes from a doubtful curve fit.
# Experiment: qHTS for inhibitors of binding or entry into cells for Marburg Virus
# Settings: Marburg virus pseudotyped entry inhibition, cell reporter; activity change, negative = inhibition: at 37.8 µM (top of the series) unless noted
# On the % scale 0 is the no-effect control and ±100 the full control effect; potency means the concentration at half of the fitted maximal effect.
SMILES,"activity change, negative = inhibition",Potency
COC(=O)c1onc(-c2ccccc2)c1C(=O)OC,inactive: 9.66%,–
O=c1[nH]c2ccccc2n1CCCSCCCn1c(=O)[nH]c2ccccc21,–,"inconclusive: 20.6 µM [inhibitor, single point]"
O=C(COC(=O)/C=C/C(=O)OCC(=O)NC12CC3CC(CC(C3)C1)C2)NC12CC3CC(CC(C3)C1)C2,–,active: 8.91 µM
CCCC(C(=O)O)n1c(O)c(C=C2N=c3ccccc3=N2)sc1=S (stereo not given),–,"inconclusive: 6.31 µM [inhibitor, single point]"
CCCCn1nnc(NC(=S)NC(=O)c2cccs2)n1,–,"inconclusive: 8.91 µM [activator, partial curve, poor fit]"
COc1ccccc1NC(=O)C(C)NC(c1ccccc1)c1ccccc1 (stereo not given),inactive: -9.88%,–
Cc1cc(OCC(=O)O/N=C(\N)c2ccccc2)ccc1Br,inactive: 18.2%,–
O=C(NCCn1cc(SCc2ccc(Br)cc2)c2ccccc21)c1cccs1,–,"inconclusive: 22.4 µM [inhibitor, single point]"
Cc1ccc(/C=N/n2nnnc2N)cc1[N+](=O)[O-],–,"inconclusive: 18.3 µM [activator, single point]"
CN(C(=O)COC(=O)Cc1c(F)cccc1Cl)c1c(N)n(Cc2ccccc2)c(=O)[nH]c1=O,inactive: 14.8%,–
CC1(C(=O)NC(=S)N(CCC#N)c2ccccc2)CC1(Cl)Cl (stereo not given),–,"inconclusive: 20.6 µM [activator, single point]"
N#CC1(C(N)=O)OC12CCS(=O)(=O)c1ccccc12 (stereo not given),inactive: 25.6%,–
O=C(/C=C/c1c(F)cccc1Cl)Nc1nc2ccccc2[nH]1,inactive: -9.48%,–
O=C(CSC1=NCCN1)Nc1cccc([N+](=O)[O-])c1,–,"inconclusive: 1.58 µM [inhibitor, full curve, poor fit]"
CN(CC(=O)Nc1cccc(F)c1)C(=O)CSc1ccc(Br)cc1,inactive: -15.9% [at 46.1 µM],–
O=C(CCCCCNC(=O)c1ccccc1)N/N=C/c1ccccc1,inactive: 6.54% [at 46.1 µM],–
CCOc1ccccc1C(=O)N/N=C/c1coc2ccc(Cl)cc2c1=O,–,"inconclusive: 22.4 µM [inhibitor, single point]"
N#Cc1c(N)n(CCOC(=O)c2cccc(Br)c2)c2nc3ccccc3nc12,–,inactive
CCOC(Cn1c(SCc2cc(C(C)=O)ccc2OC)nc2ccccc2c1=O)OCC,–,"inconclusive: 31.6 µM [activator, single point]"
NC(=O)C1=C(c2ccccc2)c2ccccc2C1=O,–,"inconclusive: 10 µM [inhibitor, partial curve, poor fit]"
COc1ccc(CCNC(=O)C2CCN(Cc3nc(-c4ccc(OC)c(OC)c4)oc3C)CC2)cc1OC,inactive: 2.36% [at 46.1 µM],–
Oc1ccc(NC(=S)N=Nc2c(O)[nH]c3ccc(Br)cc23)cc1,–,"inconclusive: 10 µM [inhibitor, partial curve, poor fit]"
Cc1cccc(NC(=O)/C(=C/c2cccc([N+](=O)[O-])c2)NC(=O)c2cccs2)c1,–,"inconclusive: 3.98 µM [inhibitor, single point]"
Cn1c2c(c(=O)c3ccccc31)CCCC2,inactive: 20.2%,–

SMILES,"activity change, negative = inhibition",Potency
CC(C)(O)C(=O)NNC(=S)Nc1ccc(F)c(Cl)c1,inactive: -12.8% [at 46.1 µM],–
Nc1nc(-c2sc3nc4c(cc3c2N)CCCC4)nc(N2CCOCC2)n1,–,"inconclusive: 20 µM [inhibitor, single point]"
CC(=O)c1c(C)nc2sc3c(=N)n(N)cnc3c2c1-c1ccc(Cl)cc1,–,"inconclusive: 0.326 µM [inhibitor, full curve, poor fit]"
COC(=O)c1ccccc1NC(=O)CNC(=O)c1ccc(OC)c(OC)c1,inactive: 0.98% [at 46.1 µM],–
O=C(c1ccc(S(=O)(=O)N2CCCCC2)cc1)N1CCN(Cc2ccc3c(c2)OCO3)CC1,–,"inconclusive: 35.5 µM [inhibitor, single point]"
CC(=O)C1=C(C)NC2=C(C(=O)c3ccccc32)C1c1ccccc1 (stereo not given),–,"inconclusive: 35.5 µM [inhibitor, single point]"
O=[N+]([O-])c1ccc(OCCCCN2CCc3ccccc3C2)cc1,–,"inconclusive: 35.5 µM [inhibitor, single point]"
CCCCCCC1=Cc2cc(OC)c(OC)cc2C(C(C(C)=O)C(=O)OCC)O1 (stereo not given),–,"inconclusive: 1.88 µM [activator, partial curve, poor fit]"
CCOc1ccc(S(=O)(=O)N2CCOCC2)cc1NC(=O)C1CSC2(C)CCC(=O)N12 (stereo not given),–,"inconclusive: 0.282 µM [inhibitor, partial curve, poor fit]"
CCOC(=O)[C@H](CCc1ccccc1)N[C@@H](C)C(=O)N1CCC[C@H]1C(=O)O,–,inactive
COc1ccc(-c2nc(CS(=O)(=O)CC(=O)NCCCN3CCOCC3)c(C)o2)cc1,inactive: 0.827% [at 46.1 µM],–
O=C(Nc1ccccc1)c1sc(N2CCOCC2)nc1-c1ccccc1,–,"inconclusive: 12.6 µM [inhibitor, single point]"
CCOc1ccc(NCc2cccn2-c2nnc(N3CCC(C(=O)NCCCN4C(C)CCCC4C)CC3)s2)cc1 (stereo not given),–,"inconclusive: 28.2 µM [inhibitor, partial curve, poor fit]"
CCN(CC)CCCC(C)Nc1nccc2c(Cl)cccc12 (stereo not given),–,"inconclusive: 35.5 µM [inhibitor, single point]"
COCCN1C(=O)C(O)=C(C(C)=O)C1c1ccc(F)cc1 (stereo not given),inactive: -3.19%,–
O=C(Nc1nc(-c2ccco2)c(-c2ccco2)s1)c1ccco1,–,"inconclusive: 6.31 µM [inhibitor, partial curve, poor fit]"
COCCCn1cnc2c(c1=O)c1nc3ccccc3nc1n2-c1ccc(C)cc1,–,"inconclusive: 35.5 µM [activator, single point]"
COc1ccccc1CCC(=O)Nc1nc2ccccc2[nH]1,–,"inconclusive: 31.6 µM [inhibitor, single point]"
COc1ccc(CNC(=O)CN(CC2CCCO2)C(=O)CNS(=O)(=O)c2ccc(F)cc2)cc1 (stereo not given),inactive: 2.41%,–
CCC1S/C(=N\S(=O)(=O)c2cccs2)N(C2CCCCC2)C1=O (stereo not given),–,"inconclusive: 4.47 µM [activator, full curve]"
CCC(c1nnnn1C1CCCC1)N1CCN(c2cccc(OC)c2)CC1 (stereo not given),–,"inconclusive: 10 µM [inhibitor, partial curve]"
O=C(CCn1c(=O)c2sccc2n(CC(=O)Nc2ccccc2)c1=O)NCc1ccccc1Cl,inactive: 7.85% [at 46.1 µM],–
Cc1cccc2nc(CSc3nc4[nH]ncc4c(=O)n3-c3ccccc3Cl)cc(=O)n12,–,"inconclusive: 2.51 µM [activator, single point]"
Cc1ccsc1CN(C(=O)COc1ccc(Cl)cc1)C1CCS(=O)(=O)C1 (stereo not given),inactive: -0.943% [at 46.1 µM],–

# 3 entries already listed, sorted by molecular weight, ascending.
SMILES,"activity change, negative = inhibition",Potency
O=C(/C=C/c1c(F)cccc1Cl)Nc1nc2ccccc2[nH]1,inactive: -9.48%,–
CCOC(=O)[C@H](CCc1ccccc1)N[C@@H](C)C(=O)N1CCC[C@H]1C(=O)O,–,inactive
Oc1ccc(NC(=S)N=Nc2c(O)[nH]c3ccc(Br)cc23)cc1,–,"inconclusive: 10 µM [inhibitor, partial curve, poor fit]"

# Further results.

SMILES,"activity change, negative = inhibition",Potency
O=S(=O)(c1ccc2c(c1)OCCO2)N1CCC(c2nc3ccc(Cl)cc3[nH]2)CC1,–,"inconclusive: 6.51 µM [inhibitor, partial curve]"
Cc1csc(NC(=O)c2ccc3c(c2)OCO3)n1,–,"inconclusive: 35.5 µM [inhibitor, single point]"
COc1ccc(-c2[nH]ncc2C(=O)NCc2cccc(OC)c2)cc1,–,"inconclusive: 5.62 µM [activator, single point]"
C/C(=N\NC(=O)CSc1nc(C)cc(C)n1)c1cccc([N+](=O)[O-])c1,inactive: -20.8% [at 46.1 µM],–
CC(C(=O)N1c2ccccc2CCc2ccccc21)n1nnc(-c2ccc(N(C)C)cc2)n1 (stereo not given),–,"inconclusive: 6.31 µM [inhibitor, full curve, poor fit]"
Cc1cc(C(=O)CSc2nnc(N)s2)c(C)n1Cc1ccco1,–,"inconclusive: 25.1 µM [inhibitor, single point]"
COc1ccc(-c2cc(C(=O)n3cnc4ccccc43)c3ccccc3n2)cc1,–,"inconclusive: 4.47 µM [activator, single point]"
NS(=O)(=O)c1ccc(NCc2cc(Cl)ccc2OCc2ccc(F)cc2)cc1,–,"inconclusive: 7.31 µM [inhibitor, partial curve, poor fit]"
Cc1cc(S(=O)(=O)Nc2nc(CN3CCOCC3)nc3sc4c(c23)CCC4)ccc1F,inactive: -29.6%,–
OC1(c2ccc(Cl)cc2)CCN(Cc2cn[nH]c2-c2ccccc2)CC1,–,"inconclusive: 10 µM [inhibitor, partial curve, poor fit]"
Cc1cnc(NC(=O)NCC2CCCC(CNC(=O)Nc3ncc(C)s3)C2)s1 (stereo not given),–,"inconclusive: 35.5 µM [inhibitor, partial curve, poor fit]"
Cn1c(=O)c2c(nc(N3CCNCC3)n2Cc2ccccc2Cl)n(C)c1=O,inactive: 17% [at 46.1 µM],–
O=c1oc2ccccc2c(N2CCCCC2)c1CN1CCCC1,inactive: -21.5%,–
COc1ccc(OC)c(C(=O)COC(=O)c2ccccc2O)c1,inactive: 11.7%,–
O=C(CN1CCCC1)Nc1ccccc1Sc1ccc(Cl)cc1,–,"inconclusive: 31.6 µM [inhibitor, single point]"
COC(=O)c1c(NC(=O)c2nc3nc(C)cc(C(F)F)n3n2)sc2c1CCC2,inactive: -13.8%,–
O=C(Nc1ccc(N2CCOCC2)cc1)c1ccc(-c2ccccc2[N+](=O)[O-])o1,–,"inconclusive: 0.447 µM [inhibitor, single point]"
Cc1ccc2c(nc3s/c(=C/c4cccs4)c(=O)n32)c1C,–,"inconclusive: 0.794 µM [activator, partial curve, poor fit]"
Cc1ccc(S(=O)(=O)NCC(c2cccnc2)N(C)C)cc1 (stereo not given),–,"inconclusive: 20 µM [inhibitor, single point]"
CCCCc1c(C)nc2ccccc2c1SCCC#N,–,"inconclusive: 1.12 µM [activator, partial curve, poor fit]"
COc1ccccc1NC(=O)CSc1nnnn1-c1ccc(C)cc1,–,"inconclusive: 6.51 µM [inhibitor, single point]"
CC(=O)Nc1ccc(S(=O)(=O)Nc2ccc3nc(C)sc3c2)cc1,–,"inconclusive: 1.12 µM [inhibitor, partial curve, poor fit]"
